{
  "source": "patent US20100047233A1",
  "about": "“TREATMENT OF POST-MENOPAUSAL AND POST-HYSTERECTOMY MEDIATED COGNITIVE DISORDERS” (priority 2006, published 2010)",
  "test": "Body weight 3 months post-surgery",
  "format": "in vivo, mice",
  "conditions": "irrespective of drug treatment",
  "data": [
    {"substance": "estrogen", "values": [
      {"measurement": "body weight of OVX+estrogen replaced group compared with SHAM", "value": "not different from the SHAM operated group"}
    ]}
  ]
}
